Measured values as given in patent US20100137411A1, “RAS-MEDIATED EPIGENETIC SILENCING EFFECTORS AND USES THEREOF” (University of Massachusetts, priority 2007, published 2010).
At least one compound was matched to its structure with a doubt left.

Test system: ZFP354B
Assay: Immunoblot analysis of ZFP354B protein in K-Ras NIH 3T3 cells
Type: cell-based, mouse
Details: LY294002 25 μM for 24 h

SMILES: O=c1cc(N2CCOCC2)oc2c(-c3ccccc3)cccc12 [LY294002]
- upregulation of ZFP354B protein by K-Ras: prevented upregulation of ZFP354B
